According to article PMC4743919:
These are yes or no findings as the source states them, for the method shown. Binding seen in cells or lysates may run through a third protein. A yes stands for co-enrichment or nearness to the bait. Other partners may have been found. Sequences can lack the tags named with a protein.

Chains of the proteins cited; added tags and fusions are not shown.
UniProt P02294: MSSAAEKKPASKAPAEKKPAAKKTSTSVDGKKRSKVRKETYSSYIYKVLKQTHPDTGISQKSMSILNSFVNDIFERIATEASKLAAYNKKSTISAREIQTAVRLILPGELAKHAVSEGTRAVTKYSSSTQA
UniProt P04911: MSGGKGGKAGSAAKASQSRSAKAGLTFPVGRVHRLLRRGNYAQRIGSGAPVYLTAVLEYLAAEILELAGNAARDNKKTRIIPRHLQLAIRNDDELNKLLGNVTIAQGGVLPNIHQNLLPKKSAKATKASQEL

B1: Rtt101 (protein, UniProt P47050 1-842)
chain: MINESVSKREGFHESISRETSASNALGLYNKFNDERNPRYRTMIAELHEFFHLTLAETITETDVKELECNKEKAAKFRKLMPKMLNNCRELTQRKSYIPYNSEFNGNDEKQKKFQLLHQHQIVLSFQEFCDELAKLIIDAHVLSFLTRCDYSYEIIPKNWTSFYKLFQYVMGAVGPIISYVPVNYPMIRKELGFETLTIFQYYDSKLFECMKSHFGREFSTLVSATIHHYIHMFPITNTMLEKEVPMLRIMSNCNFSIEGLSPKDFYMKTLRQYYCEESNLRPRLETFKNFKVLLTRNALLASLFSPEWVSDANDLFISHLLLNKKSISEYIEIGKDTYDEEKERYFKTETHFSLLMFRNAFEAKNMLSKFKEFCDDAVSEKLKAAYGSNHDTERLFDEVVQLANVDHLKIYSDSIEYHLCNLLGSTSKAIEQYVKYFESHLFIIVRKIKTTKKDLPRDMKIKYLNENLPILRLKFVNLPTFPNFFERSIFRKTILQSDQNSSFIKDILPVYKDSLMELFKQRIITNVSQEDEMRYRDQYQPYLSQFFQPVEVMADLRIKYASFLSFYENIEAAVKFGKTYNENNSKSFFPLIFDRERIPKVFQQSNEVKKNFVLPQEMDDTWNQFLRNYHEQNKVEDSDASKKELYPMWNLHHCEVESPYIIQDGTNLIFELTLFQTCVLTLFNESDHLTLQVISEQTKLAYKDLALVLKSFCNYKILTRDIDNTYSINESFKPDMKKVKNGKLRVVLPRTASLQSSNTGGERTSSAHHEGSNSQWTQELLKACITRSVKSERNGLDYDHLFETVKQQIKGFSVGEFKDALAKLLRDKFITRDESTATYKY
B2: Ctf4 (protein, UniProt Q01454 1-927)
chain: MVSVIDKLVFDFGGKTLVSLAPDNNTLCVANKNGLTKILKTNNPEEEPETLDSSKLVSSIKCYSNSHFLMTTMQGDALRYNIDSSQEELLARFALPLRDCCVIHSGKMAVFGGDDLELILLELDDETHKKHAIKIDEQVSQISYNSQMNILAVSMINGKVQIFSLTSTIPNKVHELNDYIVANSYDDTHRDKILSNMMDDIDKDNDNDLSETADPDENNVADPEFCAANRICTRVAWHPKGLHFALPCADDTVKIFSIKGYSLQKTLSTNLSSTKAHFIDLQFDPLRGTYIAAVDLNNKLTVWNWETSEIHYTREFKRKITNIAWKIQADSKTLDLVLGTWSGSIAIVQNLAESVVSNIPDQSVAESSTKHGLFVDSESDLENLEGNDDINKSDKLFSDITQEANAEDVFTQTHDGPSGLSEKRKYNFEDEEDFIDDDDGAGYISGKKPHNEHSYSRVHKTHSFPISLANTGKFRYMPFSPAGTPFGFTDRRYLTMNEVGYVSTVKNSEQYSITVSFFDVGRFREYHFEDLFGYDLCFLNEKGTLFGQSKTGQIQYRPHDSIHSNWTKIIPLQAGERITSVAATPVRVIVGTSLGYFRSFNQFGVPFAVEKTSPIVALTAQNYRVFSVHYSQFHGLSYSLSELGTSSKRYYKRECPLPMSLPNINSDMKKDANLDYYNFNPMGIKSLFFSSYGDPCIFGSDNTLLLLSKWRSPEESKWLPILDSNMEIWKMSGGKETTDIHVWPLALAYDTLNCILVKGKHIWPEFPLPLPSEMEIRMPVFVKSKLLEENKAILNKKNEIGADTEAEEGEEDKEIQIPVSMAAEEEYLRSKVLSELLTDTLENDGEMYGNENEVLAALNGAYDKALLRLFASACSDQNVEKALSLAHELKQDRALTAAVKISERAELPSLVKKINNIREARYEQQLK
B3: Mms1 (protein, UniProt Q06211 1-1407)
chain: MLGLRTHGLDRYEHYIRRPSDFGKLELQDWLNHKSFRVSPNLLIDSSTTREWNEPELFYQNTEDETWVRPCVGPKLEPSMMMLRYHDSNIGQMPQFCYPISSPINFKPVLKYILQERSELSDGFPQKYNTLIGSLFDIDKNPETLDDSDIEALDDIEMSSDSGNVKEPKIELQALEEIQQKHFSLIVSNNGIFQTGSTSITYIQSGISGSIAIKPNNVAILILLTQPSGHLLSILPLDDGKETYLLQYWNLGQKGQWNIIKHQNEKQFVLIHKELGICKFFEFHLPFTFQLVNNLTLTDSVIMNGSFFPTNYTDLDPYFIIFITAIRYERIVYFVIEWNNNEIKKKEVYQLTVFDGEKTNMTIPIGLNACLVETPLKFSLVSANQIMSGETEFHSFQLKALKGIKSFFPAPLLLLKLQELHPHTFKKFQYCTIISSSTGNICFCVTERSTIVNGNLKFYELTRFKGLKSISPLPSNPINLDSRSSSYVLVVISFSRTLELTLSLEDLRCLDKKDVIKPLKNITFKHTIDSSTEENSQILAFTSSKFYNTHTGSNINDTRNSQVWLTSPNAITQPCIDYKLRKTHQLIHLKQFQIFRHLRIWKCKNLDIALLQRLGINQSNTESSLIFATDAVSNNRIFLLDLTMTTTIDNDDPVQGLINIEDLLCDTENETILLNFTKNNLIQVTRDTIYIDPIGGDKELRKISPGWEFENVTYNDGILIVWNAGLGCVSYIENIDAVDESGALVSNLSSSKGMSKFFKQLGTVTSVNFQIKESTDDPTKYDIWILLPDCVIRTPFSDWISDSLDFSDVYILSVQQALINGPYFCSLDYESYFEVHTLQNNCFKKGSRCTSRVNFQGKDIKFRSFGVNQCLAFSAFEIFVINLTPIHDSRELDFYKLKLPHLGNNNSILEVCPDIENNQLFILYSDGLRILELSYLTSNNGNFLLKSTRSKNKKFLYLDKINRMLVLNQDLREWECIRLSDGKAVGLDSQLLKDDSEEILEIKELPIATEDNPLEKKTVLLISFTSSLKLVLLTAAKNKISNQIIDSYKLDNSRLLNHLVITPRGEIFFLDYKVMGTDNEMSFNKLKVTKHCIDQEERNNTTLRLTLETRFTFKSWSTVKTFTVVGDNIIATTNMGEKLYLIKDFSSSSDESRRVYPLEMYPDSKVQKIIPLNECCFVVAAYCGNRNDLDSRLIFYSLPTIKVGLNNETGSLPDEYGNGRVDDIFEVDFPEGFQFGTMALYDVLHGERHVNRYSEGIRSENDEAEVALRQRRNLLLFWRNHSSTPKPSLRRAATIVYEDHVSSRYFEDISSILGSTAMRTKRLSPYNAVALDKPIQDISYDPAVQTLYVLMADQTIHKFGKDRLPCQDEYEPRWNSGYLVSRRSIVKSDLICEVGLWNLSDNCKNTV
B4: Hrt1 (protein, UniProt Q08273 1-121)
chain: MSNEVDRMDVDEDESQNIAQSSNQSAPVETKKKRFEIKKWTAVAFWSWDIAVDNCAICRNHIMEPCIECQPKAMTDTDNECVAAWGVCNHAFHLHCINKWIKTRDACPLDNQPWQLARCGR

Each molecule was assayed against T1, PA-tagged Mms22 (S. cerevisiae) (UniProt Q06164) (assay: affinity purification with mass spectrometry; PA-Mms22 immunoprecipitated from S-phase synchronized yeast cells; associated proteins identified by shotgun LC-MS/MS).
T1 sequence: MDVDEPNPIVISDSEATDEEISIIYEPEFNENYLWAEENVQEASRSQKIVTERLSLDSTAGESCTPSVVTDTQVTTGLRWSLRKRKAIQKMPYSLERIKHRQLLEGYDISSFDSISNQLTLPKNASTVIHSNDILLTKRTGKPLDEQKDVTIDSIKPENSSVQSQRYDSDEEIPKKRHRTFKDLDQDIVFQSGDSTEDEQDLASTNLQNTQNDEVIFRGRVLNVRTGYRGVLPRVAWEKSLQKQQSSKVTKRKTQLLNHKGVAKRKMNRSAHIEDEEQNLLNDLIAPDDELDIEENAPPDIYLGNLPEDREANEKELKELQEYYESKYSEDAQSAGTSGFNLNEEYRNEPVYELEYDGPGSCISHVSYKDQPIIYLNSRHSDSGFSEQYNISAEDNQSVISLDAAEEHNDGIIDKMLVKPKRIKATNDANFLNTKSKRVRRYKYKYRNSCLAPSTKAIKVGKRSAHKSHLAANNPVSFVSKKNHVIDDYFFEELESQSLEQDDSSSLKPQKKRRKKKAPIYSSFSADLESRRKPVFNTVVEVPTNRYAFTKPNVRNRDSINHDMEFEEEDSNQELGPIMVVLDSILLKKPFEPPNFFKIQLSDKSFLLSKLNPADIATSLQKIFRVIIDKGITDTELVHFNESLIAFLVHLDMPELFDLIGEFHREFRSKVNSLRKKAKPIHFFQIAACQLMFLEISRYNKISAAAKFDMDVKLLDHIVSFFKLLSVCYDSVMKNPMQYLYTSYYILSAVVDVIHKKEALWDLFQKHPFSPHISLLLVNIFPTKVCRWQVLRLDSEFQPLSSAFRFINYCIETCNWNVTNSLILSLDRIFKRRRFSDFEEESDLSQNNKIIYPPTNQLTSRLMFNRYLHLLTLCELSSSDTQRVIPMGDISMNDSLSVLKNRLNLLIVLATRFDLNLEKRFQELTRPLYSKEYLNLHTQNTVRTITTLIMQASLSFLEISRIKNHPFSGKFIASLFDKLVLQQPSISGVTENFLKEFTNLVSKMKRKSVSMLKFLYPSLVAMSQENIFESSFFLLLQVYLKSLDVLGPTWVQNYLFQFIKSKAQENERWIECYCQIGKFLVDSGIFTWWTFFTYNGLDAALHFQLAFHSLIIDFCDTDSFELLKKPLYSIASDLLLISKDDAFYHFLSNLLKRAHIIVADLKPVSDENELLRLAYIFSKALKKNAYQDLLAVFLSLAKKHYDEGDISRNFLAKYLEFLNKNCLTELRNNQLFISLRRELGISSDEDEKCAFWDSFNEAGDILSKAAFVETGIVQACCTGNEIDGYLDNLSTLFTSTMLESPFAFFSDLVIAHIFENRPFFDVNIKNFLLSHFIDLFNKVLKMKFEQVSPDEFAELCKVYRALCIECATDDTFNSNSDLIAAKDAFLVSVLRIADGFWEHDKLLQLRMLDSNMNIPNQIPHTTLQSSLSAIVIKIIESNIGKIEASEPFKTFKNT

binding, binds:
Hht1 (from UniProt P61830 1-136)
Htb2 (from UniProt P02294 1-131)
Hta1 (from UniProt P04911 1-132)
B1
B2
B3
B4
